The supplement of paper PMC4604168 (melanoma cell lines)
Some of the results follow. Repeats are few or missing, and single values can be far off.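 Imaging used 1,536-well plates; nuclei positive for cleaved PARP by antibody were divided by total DNA-stained nuclei to yield the apoptosis fraction. Doses for screening kept most cells viable, and cell lines differ markedly in resting and induced cleaved-PARP levels.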

tested on: A2058; assay: cleaved PARP positive nuclei fraction relative to DMSO control; melanoma cells; higher = more apoptosis; conditions: library dose: low library concentration; 72 h

| Compound | cleaved PARP positive nuclei fraction [%] |
| --- | --- |
| Cc1cc(Nc2cc(N3CCN(C)CC3)nc(Sc3ccc(NC(=O)C4CC4)cc3)n2)n[nH]1 [Tozasertib] + Cc1ccc(NC(=O)c2cccc(N(C)C)c2)cc1NC(=O)c1ccc(O)cc1 [ZM336372] (first compound 0.006 µM, partner dose 2 µM) | 217 |
| CC[C@]1(O)C[C@H]2CN(CCc3c([nH]c4ccccc34)[C@@](C(=O)OC)(c3cc4c(cc3OC)N(C=O)[C@H]3[C@@](O)(C(=O)OC)[C@H](OC(C)=O)[C@]5(CC)C=CCN6CC[C@]43[C@@H]65)C2)C1 [vincristine] + CC1(C)NC(=O)N(c2ccc([N+](=O)[O-])c(C(F)(F)F)c2)C1=O [nilutamide] (first compound 0.0001 µM, partner dose 1 µM) | 684 |
| N#CC[C@H](C1CCCC1)n1cc(-c2ncnc3[nH]ccc23)cn1 [ruxolitinib] + CO[C@@H]1[C@H](N(C)C(=O)c2ccccc2)C[C@H]2O[C@]1(C)n1c3ccccc3c3c4c(c5c6ccccc6n2c5c31)C(=O)NC4 [Midostaurin] (first compound 1 µM, partner dose 0.08 µM) | 94.4 |
| CCCCCCCCCCCCCCCCCCOP(=O)([O-])OC1CC[N+](C)(C)CC1 [Perifosine] + COc1cc2c(Oc3ccc4[nH]c(C)cc4c3F)ncnc2cc1OCCCN1CCCC1 [cediranib] (first compound 0.4 µM, partner dose 0.4 µM) | 76.3 |
| N#CC[C@H](C1CCCC1)n1cc(-c2ncnc3[nH]ccc23)cn1 [ruxolitinib] + COc1cc2c(Oc3ccc4[nH]c(C)cc4c3F)ncnc2cc1OCCCN1CCCC1 [cediranib] (first compound 1 µM, partner dose 0.4 µM) | 118 |
| O=C(/C=C/c1cccnc1)NCCCCC1CCN(C(=O)c2ccccc2)CC1 + O=C(O)c1ccc(-c2c[nH]c3ncc(-c4ccccc4)cc23)cc1C1CCCC1 [GSK650394] (first compound 0.01 µM, partner dose 0.16 µM) | 91.5 |
| Cc1cc(Nc2cc(N3CCN(C)CC3)nc(Sc3ccc(NC(=O)C4CC4)cc3)n2)n[nH]1 [Tozasertib] + NCC(=O)Nc1ccc(-n2nc(C(F)(F)F)cc2-c2ccc3c(ccc4ccccc43)c2)cc1 [OSU03012] (first compound 0.006 µM, partner dose 1 µM) | 84.7 |
| Cc1cn(-c2cc(NC(=O)c3ccc(C)c(Nc4nccc(-c5cccnc5)n4)c3)cc(C(F)(F)F)c2)cn1 [nilotinib] + CO[C@@H]1[C@H](N(C)C(=O)c2ccccc2)C[C@H]2O[C@]1(C)n1c3ccccc3c3c4c(c5c6ccccc6n2c5c31)C(=O)NC4 [Midostaurin] (first compound 0.2 µM, partner dose 0.08 µM) | 145 |
| Cc1ccc(Nc2nccc(N(C)c3ccc4c(C)n(C)nc4c3)n2)cc1S(N)(=O)=O [Pazopanib] + CN(NC(=O)CC(=O)NN(C)C(=S)c1ccccc1)C(=S)c1ccccc1 [STA4783] (first compound 0.4 µM, partner dose 0.006 µM) | 301 |
| COc1cc([C@@H]2c3cc4c(cc3[C@@H](O[C@@H]3O[C@@H]5CO[C@@H](C)O[C@H]5[C@H](O)[C@H]3O)[C@H]3COC(=O)[C@H]23)OCO4)cc(OC)c1O [etoposide] + Cc1ccc(NC(=O)c2cccc(N(C)C)c2)cc1NC(=O)c1ccc(O)cc1 [ZM336372] (first compound 0.02 µM, partner dose 2 µM) | 153 |
| O=C(/C=C/c1cccnc1)NCCCCC1CCN(C(=O)c2ccccc2)CC1 + CN(NC(=O)CC(=O)NN(C)C(=S)c1ccccc1)C(=S)c1ccccc1 [STA4783] (first compound 0.01 µM, partner dose 0.006 µM) | 63.1 |

Shown with each value named: entries from further up.
CCCCCCCCCCCCCCCCCCOP(=O)([O-])OC1CC[N+](C)(C)CC1 [Perifosine] + COc1cc2c(Oc3ccc4[nH]c(C)cc4c3F)ncnc2cc1OCCCN1CCCC1 [cediranib] (first compound 0.4 µM, partner dose 0.4 µM)
  cleaved PARP positive nuclei fraction [%]: 76.3
N#CC[C@H](C1CCCC1)n1cc(-c2ncnc3[nH]ccc23)cn1 [ruxolitinib] + COc1cc2c(Oc3ccc4[nH]c(C)cc4c3F)ncnc2cc1OCCCN1CCCC1 [cediranib] (first compound 1 µM, partner dose 0.4 µM)
  cleaved PARP positive nuclei fraction [%]: 118

tested on: A375; assay: as above; conditions: library dose: low library concentration; 72 h

| Compound | cleaved PARP positive nuclei fraction [%] |
| --- | --- |
| O=c1[nH]nc(Sc2ncc([N+](=O)[O-])s2)n1-c1ccc2c(c1)OCCO2 + COc1cc2c(Oc3ccc4[nH]c(C)cc4c3F)ncnc2cc1OCCCN1CCCC1 [cediranib] (first compound 0.2 µM, partner dose 0.4 µM) | 74.5 |
| Cc1cc(Nc2cc(N3CCN(C)CC3)nc(Sc3ccc(NC(=O)C4CC4)cc3)n2)n[nH]1 [Tozasertib] + NC(=O)Nc1cc(-c2cccc(F)c2)sc1C(=O)N[C@H]1CCCNC1 [AZD7762] (first compound 0.006 µM, partner dose 0.02 µM) | 548 |
| Cc1cn(-c2cc(NC(=O)c3ccc(C)c(Nc4nccc(-c5cccnc5)n4)c3)cc(C(F)(F)F)c2)cn1 [nilotinib] + O=C(Nc1cccc(Cl)c1)Nc1ncc(CCNc2ncnc3ccsc23)s1 [SNS314] (first compound 0.2 µM, partner dose 0.0008 µM) | 79.1 |
| CCCCCCCCCCCCCCCCCCOP(=O)([O-])OC1CC[N+](C)(C)CC1 [Perifosine] + CC(C)(C)c1cnc(CSc2cnc(NC(=O)C3CCNCC3)s2)o1 [SNS-032] (first compound 0.4 µM, partner dose 0.01 µM) | 6760 |
| O=C(Nc1cc(C(F)(F)F)cc(C(F)(F)F)c1)c1cc(Cl)ccc1O + NCC(=O)Nc1ccc(-n2nc(C(F)(F)F)cc2-c2ccc3c(ccc4ccccc43)c2)cc1 [OSU03012] (first compound 0.016 µM, partner dose 1 µM) | 6030 |
| CCCCCCCCCCCCCCCCCCOP(=O)([O-])OC1CC[N+](C)(C)CC1 [Perifosine] + O=C(O)c1ccc(-c2c[nH]c3ncc(-c4ccccc4)cc23)cc1C1CCCC1 [GSK650394] (first compound 0.4 µM, partner dose 0.16 µM) | 59 |
| O=C(Nc1cc(C(F)(F)F)cc(C(F)(F)F)c1)c1cc(Cl)ccc1O + C[C@@H]1CCN(C(=O)CC#N)C[C@@H]1N(C)c1ncnc2[nH]ccc12 [CP690550] (first compound 0.016 µM, partner dose 1 µM) | 61.3 |
| CC[C@]1(O)C[C@H]2CN(CCc3c([nH]c4ccccc34)[C@@](C(=O)OC)(c3cc4c(cc3OC)N(C=O)[C@H]3[C@@](O)(C(=O)OC)[C@H](OC(C)=O)[C@]5(CC)C=CCN6CC[C@]43[C@@H]65)C2)C1 [vincristine] + CO[C@@H]1[C@H](N(C)C(=O)c2ccccc2)C[C@H]2O[C@]1(C)n1c3ccccc3c3c4c(c5c6ccccc6n2c5c31)C(=O)NC4 [Midostaurin] (first compound 0.0001 µM, partner dose 0.08 µM) | 97.4 |
| COc1cc([C@@H]2c3cc4c(cc3[C@@H](O[C@@H]3O[C@@H]5CO[C@@H](C)O[C@H]5[C@H](O)[C@H]3O)[C@H]3COC(=O)[C@H]23)OCO4)cc(OC)c1O [etoposide] + OCCn1cc(-c2cnc3nnn(Cc4ccc5ncccc5c4)c3n2)cn1 [PF04217903] (first compound 0.02 µM, partner dose 1 µM) | 67.7 |
| CCCCCCCCCCCCCCCCCCOP(=O)([O-])OC1CC[N+](C)(C)CC1 [Perifosine] + C[C@@H]1CCN(C(=O)CC#N)C[C@@H]1N(C)c1ncnc2[nH]ccc12 [CP690550] (first compound 0.4 µM, partner dose 1 µM) | 374 |
| O=C(/C=C/c1cccnc1)NCCCCC1CCN(C(=O)c2ccccc2)CC1 + Cc1ccc(NC(=O)c2cccc(N(C)C)c2)cc1NC(=O)c1ccc(O)cc1 [ZM336372] (first compound 0.01 µM, partner dose 2 µM) | 56.5 |
| Cc1ccc(Nc2nccc(N(C)c3ccc4c(C)n(C)nc4c3)n2)cc1S(N)(=O)=O [Pazopanib] + COc1cc(Nc2ncc(F)c(Nc3ccc4c(n3)NC(=O)C(C)(C)O4)n2)cc(OC)c1OC [Tamatinib] (first compound 0.4 µM, partner dose 0.4 µM) | 99.2 |
| N#CC[C@H](C1CCCC1)n1cc(-c2ncnc3[nH]ccc23)cn1 [ruxolitinib] + COc1cc(Nc2ncc(F)c(Nc3ccc4c(n3)NC(=O)C(C)(C)O4)n2)cc(OC)c1OC [Tamatinib] (first compound 1 µM, partner dose 0.4 µM) | 56.9 |
| COc1cc([C@@H]2c3cc4c(cc3[C@@H](O[C@@H]3O[C@@H]5CO[C@@H](C)O[C@H]5[C@H](O)[C@H]3O)[C@H]3COC(=O)[C@H]23)OCO4)cc(OC)c1O [etoposide] + CN(NC(=O)CC(=O)NN(C)C(=S)c1ccccc1)C(=S)c1ccccc1 [STA4783] (first compound 0.02 µM, partner dose 0.006 µM) | 5370 |
| O=C(Nc1cc(C(F)(F)F)cc(C(F)(F)F)c1)c1cc(Cl)ccc1O + O=C(Nc1cccc(Cl)c1)Nc1ncc(CCNc2ncnc3ccsc23)s1 [SNS314] (first compound 0.016 µM, partner dose 0.0008 µM) | 42.3 |
| Cc1cn(-c2cc(NC(=O)c3ccc(C)c(Nc4nccc(-c5cccnc5)n4)c3)cc(C(F)(F)F)c2)cn1 [nilotinib] + NC(=O)Nc1cc(-c2cccc(F)c2)sc1C(=O)N[C@H]1CCCNC1 [AZD7762] (first compound 0.2 µM, partner dose 0.02 µM) | 540 |
| Cc1cn(-c2cc(NC(=O)c3ccc(C)c(Nc4nccc(-c5cccnc5)n4)c3)cc(C(F)(F)F)c2)cn1 [nilotinib] + O=C(O)c1ccc(-c2c[nH]c3ncc(-c4ccccc4)cc23)cc1C1CCCC1 [GSK650394] (first compound 0.2 µM, partner dose 0.16 µM) | 76.8 |
